Data on two substances can be found in US6693076.

Sequences of proteins named here, by UniProt entry; tags and fusion partners are left off. A change or cut given only in a name is not applied to a line headed by its entry. Residues count along the entry.
UniProt P24062, residues 31-1370: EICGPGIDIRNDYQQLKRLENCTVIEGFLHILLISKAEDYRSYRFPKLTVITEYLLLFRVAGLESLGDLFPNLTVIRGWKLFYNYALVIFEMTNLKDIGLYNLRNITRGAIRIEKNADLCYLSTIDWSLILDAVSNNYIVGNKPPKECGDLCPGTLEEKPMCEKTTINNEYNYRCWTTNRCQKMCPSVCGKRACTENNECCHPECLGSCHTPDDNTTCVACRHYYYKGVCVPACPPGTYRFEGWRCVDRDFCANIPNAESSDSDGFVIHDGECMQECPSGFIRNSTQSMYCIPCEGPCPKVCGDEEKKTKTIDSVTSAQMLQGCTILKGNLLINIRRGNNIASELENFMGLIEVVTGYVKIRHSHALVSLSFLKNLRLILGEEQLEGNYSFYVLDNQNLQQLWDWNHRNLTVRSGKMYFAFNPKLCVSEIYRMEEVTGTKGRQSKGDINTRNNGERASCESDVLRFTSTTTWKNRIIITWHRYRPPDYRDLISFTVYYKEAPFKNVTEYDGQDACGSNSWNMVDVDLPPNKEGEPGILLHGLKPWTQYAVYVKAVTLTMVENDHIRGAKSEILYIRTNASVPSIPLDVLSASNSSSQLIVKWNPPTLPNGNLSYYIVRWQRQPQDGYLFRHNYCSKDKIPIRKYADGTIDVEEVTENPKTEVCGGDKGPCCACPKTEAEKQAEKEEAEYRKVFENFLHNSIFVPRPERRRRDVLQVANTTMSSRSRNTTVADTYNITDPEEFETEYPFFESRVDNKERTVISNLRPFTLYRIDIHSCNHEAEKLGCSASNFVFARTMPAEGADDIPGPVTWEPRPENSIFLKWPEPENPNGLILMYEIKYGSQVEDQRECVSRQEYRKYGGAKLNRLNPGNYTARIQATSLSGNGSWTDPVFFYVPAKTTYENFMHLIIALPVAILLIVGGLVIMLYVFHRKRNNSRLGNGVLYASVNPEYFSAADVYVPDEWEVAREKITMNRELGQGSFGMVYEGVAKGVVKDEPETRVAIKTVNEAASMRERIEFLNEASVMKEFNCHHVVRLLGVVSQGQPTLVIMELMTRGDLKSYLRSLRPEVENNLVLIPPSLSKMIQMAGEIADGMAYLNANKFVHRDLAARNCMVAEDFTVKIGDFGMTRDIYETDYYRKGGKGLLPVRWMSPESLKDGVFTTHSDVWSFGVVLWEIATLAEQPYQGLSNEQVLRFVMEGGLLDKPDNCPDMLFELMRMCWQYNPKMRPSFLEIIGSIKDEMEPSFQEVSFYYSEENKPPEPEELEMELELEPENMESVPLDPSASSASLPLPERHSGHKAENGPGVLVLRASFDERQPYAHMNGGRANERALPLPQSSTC
UniProt P05019: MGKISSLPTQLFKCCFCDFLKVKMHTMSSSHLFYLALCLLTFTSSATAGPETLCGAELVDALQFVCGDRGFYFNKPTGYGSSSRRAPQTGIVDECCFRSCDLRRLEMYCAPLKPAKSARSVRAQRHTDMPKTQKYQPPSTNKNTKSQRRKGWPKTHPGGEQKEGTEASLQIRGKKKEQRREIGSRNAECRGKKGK

These are yes or no findings as the source states them, for the method shown. Some results given as binding are weak or reduced against the parent protein; the word gives no strength.

This assay has as its target IGF-I receptor in homogenized adult rat brain tissue (cerebral cortex and cerebellum) (rat) (UniProt P24062). Briefly: displacement of 125I-[Thr59]IGF-I from homogenised rat brain tissue. (In general: Displacement assays read how much labelled ligand stays bound in the presence of the test substance.)

Take “IGF-I(4-70) (Human Brain IGF) (from UniProt P05019 52-118) (ligand)”: the binding entry was “binds”.
With “Human IGF-I (Somatomedin-C) (from UniProt P05019 49-118) (ligand)”, the binding result was “binds”.
